We go through four molecules from publication PMC7324386.

These are yes or no findings as the source states them, for the method shown. Binding seen in cells or lysates may run through a third protein. A yes stands for co-enrichment or nearness to the bait. Other partners may have been found. For some of these results: No binding means not detected with the bait. For some of these results: Sequences can lack the tags named with a protein.

B1: PUX4 (protein, UniProt Q8RWU7 1-303)
chain: MSSKDKKPSKPSSSRGGIRTLSDLNRRSGPDSDSDSDGPQEYYTGGEKSGMLVQDPSKKDDVDEIFNQARQLGAVEGPLEPPPSSRSFTGTGRLLSGENVPTGNQQPEPVVHNIVFWSNGFTIDDGPLRKLDDPENASFLESIRKSECPKELEPADRRAPVHVNLMRKEEKCPERQKRRVSFQGVGRTLGGSNEGSGSSSPVAPDSAPIPIQTEPAPSQSLVIDETVPTTSIQLRLADGTRLVAKFNHHHTVNDIRGFIDSSRPGASLNYQLQTMGFPPKPLTDLTQTIEEAGLANSVVLQKF
B2: PUX5 (protein, UniProt Q7Y175 1-421)
chain: MATETNENLINSFIEITSSSREEANFFLESHTWNLDAAVSTFLDNDAAAAAEPNPTGPPPPSSTIAGAQSPSQSHSPDYTPSETSPSPSRSRSASPSSRAAPYGLRSRGGAGENKETENPSGIRSSRSRQHAGNIRTFADLNRSPADGEGSDSDEANEYYTGGQKSGMMVQDPKKVKDVDELFDQARQSAVDRPVEPSRSASTSFTGAARLLSGEAVSSSPQQQQQEQPQRIMHTITFWLNGFTVNDGPLRGFSDPENAAFMNSISRSECPSELEPADKKIPVHVDLVRRGENFTEPPKPKNPFQGVGRTLGASGSGSSSAPQASSAPMNVAPAPSRGLVVDPAAPTTSIQLRLADGTRLVSRFNNHHTVRDVRGFIDASRPGGSKEYQLLTMGFPPKQLTELDQTIEQAGIANAVVIQKF
B3: UFD1C (protein, UniProt Q8W570 1-311)
chain: MFYDGYAYHGTTFEQTYRCYPSSFIDKPQIESGDKIIMPPSALDRLASLQIDYPMLFELRNASTDSFSHCGVLEFIAEEGVIYIPYWMMQNLLLQEGDMVRVRNVTLPKGTYVKLQPHTTDFLDIANPKAILETALRNYSCLTVGDSIMVPYNNKKYFIDIVEAKPSNGISIIETDCEVDFAPPLDYKEPERPVAPAPAKAKEVDVAEAEPKFNPFTGSGRRLDGRPLSYEPQPGAANSNGQSHPVASSSSSGSEKATQQNRGKLVFGSNVERSTKETTKVGAGKDRKQEEEAEKEAKFQAFSGKKYSLRG
B4: UFD1B (protein, UniProt Q9SJV0 1-340)
chain: MVLRFCCHLLTYSVSLLPPITMFFDGYHYHGTTFEQSYRCYPASFIDKPQLESGDKIIMPPSALDRLASLHIDYPMLFELRNAGIERVTHCGVLEFIAEEGMIYMPYWMMQNLLLQEGDIVRVRNVTLPKGTYVKLQPHTTDFLDISNPKAILETALRNYSCLTSGDSIMVPYNNKKYFIDIVETKPANAISIIETDCEVDFAPPLDYKEPERPTAPSAAKGPAKAEEVVDEPEPKFNPFTGSGRRLDGRPLAYEPAPASSSKGKQPVVANGNGQSSVASSSEKATRAQGKLVFGANGNRAPKEAAPKVGAAKETKKEEQEKKDEPKFQAFSGKKYSLRG

One assay has as its target T1, BioID2-WIP1 (Arabidopsis thaliana) (UniProt Q8GXA4).
T1 sequence: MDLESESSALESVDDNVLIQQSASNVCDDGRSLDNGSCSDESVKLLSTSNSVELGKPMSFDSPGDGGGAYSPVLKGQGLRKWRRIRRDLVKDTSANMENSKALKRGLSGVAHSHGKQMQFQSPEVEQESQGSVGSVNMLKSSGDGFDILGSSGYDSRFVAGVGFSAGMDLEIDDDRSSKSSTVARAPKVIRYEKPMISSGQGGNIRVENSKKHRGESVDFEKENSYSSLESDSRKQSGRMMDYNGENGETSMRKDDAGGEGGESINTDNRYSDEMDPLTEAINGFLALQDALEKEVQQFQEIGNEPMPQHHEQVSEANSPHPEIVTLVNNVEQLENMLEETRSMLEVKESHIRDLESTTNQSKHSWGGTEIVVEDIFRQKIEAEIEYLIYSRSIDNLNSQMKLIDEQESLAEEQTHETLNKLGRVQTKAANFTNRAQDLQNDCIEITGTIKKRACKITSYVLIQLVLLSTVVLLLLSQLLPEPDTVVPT
The assay can be described thus: proximity labelling; BioID2-tagged bait in 10-day-old transgenic Arabidopsis seedlings, 50 µM biotin for 16 h at room temperature, streptavidin-coated beads, label-free quantitative MS, ratiometric analysis against controls; the SUN1 bait also with MG132 treatment.
Take B1: the binding result is “no binding”.
On the same count and under the same terms, under B2 stands “no binding”.
The same measure, in the same setting: in the case of B3 it was “no binding”; in that of B4, “no binding”.

The next assay concerns the target Nup82-BioID2 (Arabidopsis thaliana). The assay is described as above.
In the case of B1, the binding entry is “no binding”.
For B2, the binding result is on record as “no binding”.
Still for that read-out and setting: in the case of B3 it was “no binding”; in that of B4, “no binding”.

For the next assay, the target named is T2, PUX5-BioID2-HA (Arabidopsis thaliana) (UniProt Q7Y175).
T2 sequence: B2 chain
The description is as above.
Take B1: the binding result is “binds”.
Still for that read-out and setting: in the case of B3 it was “binds”.
Still for that read-out and setting: under B4 stands “binds”.

A further assay has as its target T3, HA-BioID2-WIT1 (Arabidopsis thaliana) (UniProt Q8L7E5).
T3 sequence: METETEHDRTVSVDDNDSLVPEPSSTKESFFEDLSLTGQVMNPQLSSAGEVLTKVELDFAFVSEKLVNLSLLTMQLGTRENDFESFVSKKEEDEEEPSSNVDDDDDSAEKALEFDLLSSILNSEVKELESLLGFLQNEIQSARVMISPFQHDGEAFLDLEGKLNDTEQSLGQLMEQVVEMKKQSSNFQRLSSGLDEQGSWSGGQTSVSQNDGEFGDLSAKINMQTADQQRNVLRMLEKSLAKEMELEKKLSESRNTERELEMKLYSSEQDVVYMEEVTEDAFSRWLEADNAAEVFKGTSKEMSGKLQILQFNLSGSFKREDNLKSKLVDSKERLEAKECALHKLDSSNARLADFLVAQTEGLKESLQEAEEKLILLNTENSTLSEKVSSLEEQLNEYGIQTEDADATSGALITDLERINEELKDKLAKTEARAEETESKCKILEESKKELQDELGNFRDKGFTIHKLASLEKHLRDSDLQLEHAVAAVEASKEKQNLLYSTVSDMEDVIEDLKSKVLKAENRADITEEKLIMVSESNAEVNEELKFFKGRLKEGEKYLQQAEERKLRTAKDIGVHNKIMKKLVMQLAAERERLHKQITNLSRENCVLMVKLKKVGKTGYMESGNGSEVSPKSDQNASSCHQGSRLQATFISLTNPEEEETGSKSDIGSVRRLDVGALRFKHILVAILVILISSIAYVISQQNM
The description is as above.
Turning to B1, the binding entry is listed as “no binding”.
As to B2, the binding result is “no binding”.
On the same count and under the same terms, under B3 stands “no binding”.
On to B4, for which the binding entry is reported as “no binding”.

The next assay concerns the target T4, HA-BioID2-RHD3 (UniProt P93042).
T4 sequence: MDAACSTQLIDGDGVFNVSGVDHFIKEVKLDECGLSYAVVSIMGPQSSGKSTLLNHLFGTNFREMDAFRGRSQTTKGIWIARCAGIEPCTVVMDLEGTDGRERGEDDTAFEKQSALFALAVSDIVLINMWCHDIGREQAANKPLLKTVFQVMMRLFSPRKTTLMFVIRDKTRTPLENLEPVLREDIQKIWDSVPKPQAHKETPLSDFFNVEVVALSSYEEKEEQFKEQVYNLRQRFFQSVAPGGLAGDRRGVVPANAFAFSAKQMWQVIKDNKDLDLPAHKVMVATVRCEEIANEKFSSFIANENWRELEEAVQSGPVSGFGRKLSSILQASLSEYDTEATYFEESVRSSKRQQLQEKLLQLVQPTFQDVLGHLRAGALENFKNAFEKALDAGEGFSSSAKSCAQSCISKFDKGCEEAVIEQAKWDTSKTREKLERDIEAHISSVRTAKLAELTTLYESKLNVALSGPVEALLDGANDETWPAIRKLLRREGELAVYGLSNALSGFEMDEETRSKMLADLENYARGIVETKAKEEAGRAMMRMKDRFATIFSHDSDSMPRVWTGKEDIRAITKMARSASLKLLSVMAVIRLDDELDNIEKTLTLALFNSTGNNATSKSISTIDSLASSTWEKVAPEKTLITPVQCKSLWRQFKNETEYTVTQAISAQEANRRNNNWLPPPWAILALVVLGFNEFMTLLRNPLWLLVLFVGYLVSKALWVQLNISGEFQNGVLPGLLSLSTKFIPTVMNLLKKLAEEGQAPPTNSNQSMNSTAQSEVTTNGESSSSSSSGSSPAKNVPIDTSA
The assay is described as above.
In the case of B1, the binding result was “no binding”.
On the same count and under the same terms, under B2 stands “no binding”.
Regarding B3, the binding entry was “no binding”.
The same measure, in the same setting: under B4 stands “no binding”.
